Measurements reported in PubChem BioAssay AID602196 (INSERM, 2012).
The whole screen tested about 23,000 reagents; below is a part drawn at random. In the full data, 455 (2%) were called active. 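Active includes both protection and sensitisation; some change values fall well beyond the stated -50 to +50 range.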 Entries without a mark were called inactive. The numbers tell different reagents against one gene apart. Further read-outs or replicates are left out here. No sequences are given here. Not stated in the record: the amount of reagent.

- Test: 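Modifiers of cisplatin sensitivity in A549 cells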
- Cells: human A549 lung cancer cells
- Reagents: siRNA pair against human genes
- Duration: 48 h transfection before cisplatin; time from cisplatin to read-out not stated
- Conditions: cisplatin at a dose killing half of control-siRNA cells; exact dose and duration not given
- Measured: 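Cisplatin cell death as a shift from the 50% death seen with control siRNA; siRNAs toxic or growth-blocking alone scored 0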
- Direction: two-siRNA summed score (-2 to +2): higher = both siRNAs protect from cisplatin killing; -2 means both sensitise
- Call rule: 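siRNAs harmful alone (LDH or WST-1) get 0; others get +1 for less and -1 for more cisplatin killing; genes are active when the two siRNAs give the same sign, summing to ±2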
- Meaning of the calls: active = both siRNAs shift cisplatin killing the same way; inactive = no consistent shift, or siRNA harmful alone

two-siRNA summed score (-2 to +2), by gene symbol and reagent
DPEP1 (dipeptidase 1): #1 1
KIF20B (kinesin family member 20B): #1 0
CLCN6 (Cl-/H+ antiporter 6): #1 0
DCAF4 (DDB1 and CUL4 associated factor 4): #1 0
TAS2R7 (taste 2 receptor member 7): #1 0
PPM1E (protein phosphatase, Mg2+/Mn2+ dependent 1E): #1 0
UBQLNL (ubiquilin like): #1 -1
LOC441054: #1 0
SEMA3C (semaphorin 3C): #1 2 (active)
HNRNPA1 (heterogeneous nuclear ribonucleoprotein A1): #1 0
LRCH1: #1 0
FAM174A (family with sequence similarity 174 member A): #1 0
USP5 (ubiquitin specific peptidase 5): #1 -1
ZNF32 (zinc finger protein 32): #1 0
LOC441884: #1 0
EIF4G1 (eukaryotic translation initiation factor 4 gamma 1): #1 0
LOC440739: #1 0
TMED1 (transmembrane p24 trafficking protein 1): #1 -1
KLKB1 (kallikrein B1): #1 0
OR6T1 (olfactory receptor family 6 subfamily T member 1): #1 0
CHST7 (carbohydrate sulfotransferase 7): #1 0
LOC162993: #1 0
LOC339902 (hCG1813818): #1 0
SIX3 (SIX homeobox 3): #1 1
RALGAPA1 (Ral GTPase activating protein catalytic subunit alpha 1): #1 1
NRP2 (neuropilin 2): #1 0
IL17RB (interleukin 17 receptor B): #1 0
HES1 (hes family bHLH transcription factor 1): #1 0
ADAM21 (ADAM metallopeptidase domain 21): #1 0
POU5F1 (POU class 5 homeobox 1): #1 0
TAS2R42 (taste 2 receptor member 42): #1 1
POLR3F (RNA polymerase III subunit F): #1 0
LOC387632: #1 1
CBLN1 (cerebellin 1 precursor): #1 1
TENM4 (teneurin transmembrane protein 4): #1 0
ARHGEF2 (Rho/Rac guanine nucleotide exchange factor 2): #1 0
PRRC2C (proline rich coiled-coil 2C): #1 0
TCTN1 (tectonic family member 1): #1 0
LOC389290: #1 0
SFXN1 (sideroflexin 1): #1 0
DCTN4 (dynactin subunit 4): #1 0
ARL9 (ARF like GTPase 9): #1 -1
NECAB1 (N-terminal EF-hand calcium binding protein 1): #1 0
GPR155 (G protein-coupled receptor 155): #1 1
PRKCQ (protein kinase C theta): #1 -1
LOC203076: #1 0
NOTCH2NLA (notch 2 N-terminal like A): #1 1
CCDC73 (coiled-coil domain containing 73): #1 0
SLC49A3: #1 1
MGC12760: #1 0
PCGF5 (polycomb group ring finger 5): #1 0
RCC1 (regulator of chromosome condensation 1): #1 1
LOC286436: #1 1
DENND2B (DENN domain containing 2B): #1 0
PLCXD3: #1 2 (active)
RPS15A (ribosomal protein S15a): #1 0; #2 0
ZNF137P (zinc finger protein 137, pseudogene): #1 0
CAB39 (calcium binding protein 39): #1 0
FNDC4 (fibronectin type III domain containing 4): #1 0
ZNF33B (zinc finger protein 33B): #1 0
CHKA (choline kinase alpha): #1 0
GADD45G (growth arrest and DNA damage inducible gamma): #1 0
CRCT1 (cysteine rich C-terminal 1): #1 0
RNF19B (ring finger protein 19B): #1 -1
TAF1L (TATA-box binding protein associated factor 1 like): #1 0
BTK (Bruton tyrosine kinase): #1 0
PCDHGA9 (protocadherin gamma subfamily A, 9): #1 1
ZNF302 (zinc finger protein 302): #1 1
IL10 (interleukin 10): #1 0
TBCEL (tubulin folding cofactor E like): #1 0
CACNA1D (calcium voltage-gated channel subunit alpha1 D): #1 0
SAP30 (Sin3A associated protein 30): #1 0

Sorted by “two-siRNA summed score (-2 to +2)” (high to low): 5 of the entries above
gene symbol	reagent no.	two-siRNA summed score (-2 to +2)
SEMA3C (semaphorin 3C)	1	2 (active)
PPM1E (protein phosphatase, Mg2+/Mn2+ dependent 1E)	1	0
LOC441054	1	0
HNRNPA1 (heterogeneous nuclear ribonucleoprotein A1)	1	0
UBQLNL (ubiquilin like)	1	-1
